According to PubChem BioAssay (EPA / NIEHS):
The inconclusive results got no clear call from the source. Where the call is inconclusive, the potency comes from a doubtful curve fit.

Sequences of proteins named here, by UniProt entry; tags and fusion partners are left off. A change or cut given only in a name is not applied to a line headed by its entry.
UniProt P37288, whole entry, looked up: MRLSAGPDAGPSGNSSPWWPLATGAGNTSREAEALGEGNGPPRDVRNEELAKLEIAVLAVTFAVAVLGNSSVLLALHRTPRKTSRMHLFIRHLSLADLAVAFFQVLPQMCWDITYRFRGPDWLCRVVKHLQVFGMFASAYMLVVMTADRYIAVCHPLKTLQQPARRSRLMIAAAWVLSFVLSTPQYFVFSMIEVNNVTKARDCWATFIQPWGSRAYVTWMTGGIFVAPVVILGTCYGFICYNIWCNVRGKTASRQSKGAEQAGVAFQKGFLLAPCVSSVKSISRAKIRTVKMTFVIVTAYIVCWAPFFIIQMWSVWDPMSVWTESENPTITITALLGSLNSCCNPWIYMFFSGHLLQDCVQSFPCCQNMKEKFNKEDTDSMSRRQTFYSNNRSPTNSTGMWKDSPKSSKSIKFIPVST

Target: human Vasopressin 1A Receptor (V1A), AVPR1A (gene 552) (UniProt P37288)
Test: NVS_GPCR_hV1A: NovaScreen (NVS) G Protein-Coupled Receptor Assay for human Vasopressin 1A Receptor (V1A) (AID 2283284); active means hit-call score of the fitted dose curve at least 0.9, where 1 is the maximum; inconclusive means response in the unintended direction; inactive means score below 0.9
In short: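 Single-concentration duplicate screen at 25 uM, with concentration-response follow-up (top 50 uM) for actives. The assay measured displacement of a radioligand from human platelet-derived receptor after 1.5 h, detected by filtration and scintillation counting.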

Compound | AC50
Oc1cc(Cl)ccc1Oc1ccc(Cl)cc1Cl | inconclusive: 41.4 µM
Cc1ccc(N=C=O)cc1N=C=O | inconclusive: 25 µM
CNC(=S)S | inconclusive: 25 µM
